In the supplement of paper PMC10849652 one finds log2 fold change data, which are given here for 38 targets.

The chains behind the UniProt entries cited, without tags or fusion partners. Where a name states a change or a piece, a line headed by the entry shows the natural chain unless it says otherwise.
UniProt Q9NP74: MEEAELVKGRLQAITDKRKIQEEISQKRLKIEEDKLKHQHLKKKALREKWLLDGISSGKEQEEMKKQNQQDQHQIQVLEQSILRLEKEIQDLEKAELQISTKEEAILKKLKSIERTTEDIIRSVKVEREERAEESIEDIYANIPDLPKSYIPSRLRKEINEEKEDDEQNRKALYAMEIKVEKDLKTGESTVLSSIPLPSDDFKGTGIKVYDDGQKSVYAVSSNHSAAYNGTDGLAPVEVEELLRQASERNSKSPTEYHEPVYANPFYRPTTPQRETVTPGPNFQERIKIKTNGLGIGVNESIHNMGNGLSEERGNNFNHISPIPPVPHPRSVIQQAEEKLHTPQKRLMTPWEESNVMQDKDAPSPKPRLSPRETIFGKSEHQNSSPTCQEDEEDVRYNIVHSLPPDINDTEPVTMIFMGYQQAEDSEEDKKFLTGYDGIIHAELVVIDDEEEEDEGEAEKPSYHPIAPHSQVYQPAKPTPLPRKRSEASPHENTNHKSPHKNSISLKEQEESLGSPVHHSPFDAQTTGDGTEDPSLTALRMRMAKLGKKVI
UniProt O75914, whole entry, looked up: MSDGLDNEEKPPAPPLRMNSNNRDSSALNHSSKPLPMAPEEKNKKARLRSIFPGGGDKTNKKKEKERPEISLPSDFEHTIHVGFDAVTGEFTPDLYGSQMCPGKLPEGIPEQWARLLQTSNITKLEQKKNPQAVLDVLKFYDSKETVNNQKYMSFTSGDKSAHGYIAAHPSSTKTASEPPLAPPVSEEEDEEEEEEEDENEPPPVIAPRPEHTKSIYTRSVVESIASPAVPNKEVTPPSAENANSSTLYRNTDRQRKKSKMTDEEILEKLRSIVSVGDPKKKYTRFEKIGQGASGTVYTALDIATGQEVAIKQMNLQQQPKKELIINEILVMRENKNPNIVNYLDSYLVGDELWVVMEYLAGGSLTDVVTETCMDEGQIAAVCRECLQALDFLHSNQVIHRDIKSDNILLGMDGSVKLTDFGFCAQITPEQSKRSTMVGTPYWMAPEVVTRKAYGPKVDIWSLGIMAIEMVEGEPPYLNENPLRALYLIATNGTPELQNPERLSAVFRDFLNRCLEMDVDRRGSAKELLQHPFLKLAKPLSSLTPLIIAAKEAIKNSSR
UniProt H7BZJ3: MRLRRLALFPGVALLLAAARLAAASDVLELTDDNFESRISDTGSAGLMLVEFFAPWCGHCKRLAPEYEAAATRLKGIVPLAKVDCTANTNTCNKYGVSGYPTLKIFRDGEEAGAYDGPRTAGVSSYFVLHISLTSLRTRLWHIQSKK
UniProt Q8WW12: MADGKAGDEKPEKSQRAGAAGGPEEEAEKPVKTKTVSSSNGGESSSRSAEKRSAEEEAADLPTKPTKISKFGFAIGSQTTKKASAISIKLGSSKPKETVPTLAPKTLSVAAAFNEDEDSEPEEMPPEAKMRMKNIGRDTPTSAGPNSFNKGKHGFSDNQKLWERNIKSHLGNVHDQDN
UniProt Q96AQ6: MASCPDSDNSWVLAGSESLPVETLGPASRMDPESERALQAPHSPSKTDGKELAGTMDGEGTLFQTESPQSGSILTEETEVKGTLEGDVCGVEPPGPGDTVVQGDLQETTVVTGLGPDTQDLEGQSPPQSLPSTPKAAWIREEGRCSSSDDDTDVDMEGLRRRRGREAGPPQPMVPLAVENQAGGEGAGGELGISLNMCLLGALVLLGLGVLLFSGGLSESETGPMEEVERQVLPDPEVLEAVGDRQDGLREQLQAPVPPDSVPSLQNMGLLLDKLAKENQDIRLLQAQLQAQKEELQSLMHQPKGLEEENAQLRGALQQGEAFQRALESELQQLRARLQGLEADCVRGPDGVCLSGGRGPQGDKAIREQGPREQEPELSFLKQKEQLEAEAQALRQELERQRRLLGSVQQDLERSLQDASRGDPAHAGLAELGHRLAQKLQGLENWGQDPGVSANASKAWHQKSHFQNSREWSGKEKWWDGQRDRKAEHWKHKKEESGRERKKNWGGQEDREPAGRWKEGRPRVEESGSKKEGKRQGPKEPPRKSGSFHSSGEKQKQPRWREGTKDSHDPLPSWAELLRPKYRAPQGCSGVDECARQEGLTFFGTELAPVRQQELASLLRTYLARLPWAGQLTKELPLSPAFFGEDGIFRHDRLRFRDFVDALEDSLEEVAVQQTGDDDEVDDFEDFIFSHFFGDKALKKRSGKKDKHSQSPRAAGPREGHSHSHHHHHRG
UniProt Q8NCN5: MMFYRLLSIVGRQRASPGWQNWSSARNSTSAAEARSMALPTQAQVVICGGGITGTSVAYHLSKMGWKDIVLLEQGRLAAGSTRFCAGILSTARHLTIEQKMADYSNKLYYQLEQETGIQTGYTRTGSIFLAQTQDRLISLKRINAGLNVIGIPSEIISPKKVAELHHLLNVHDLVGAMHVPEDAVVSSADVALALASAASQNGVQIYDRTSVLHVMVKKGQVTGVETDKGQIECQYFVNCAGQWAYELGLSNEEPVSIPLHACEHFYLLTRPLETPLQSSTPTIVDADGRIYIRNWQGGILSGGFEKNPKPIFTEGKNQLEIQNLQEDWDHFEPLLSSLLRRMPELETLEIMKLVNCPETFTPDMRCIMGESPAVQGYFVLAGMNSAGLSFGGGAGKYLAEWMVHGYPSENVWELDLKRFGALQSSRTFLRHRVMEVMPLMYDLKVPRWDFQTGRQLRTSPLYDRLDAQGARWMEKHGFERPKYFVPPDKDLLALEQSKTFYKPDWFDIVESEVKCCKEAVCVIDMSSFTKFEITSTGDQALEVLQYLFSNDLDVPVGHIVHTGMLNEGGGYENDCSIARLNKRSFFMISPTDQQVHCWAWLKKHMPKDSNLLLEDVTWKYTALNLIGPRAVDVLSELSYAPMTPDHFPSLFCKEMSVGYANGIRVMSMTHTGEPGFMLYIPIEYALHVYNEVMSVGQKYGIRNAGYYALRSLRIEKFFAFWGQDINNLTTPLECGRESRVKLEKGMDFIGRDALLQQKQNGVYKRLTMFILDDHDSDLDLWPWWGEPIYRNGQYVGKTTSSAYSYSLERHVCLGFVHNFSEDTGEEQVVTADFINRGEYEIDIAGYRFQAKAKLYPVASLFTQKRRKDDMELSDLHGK
UniProt Q9UBV8: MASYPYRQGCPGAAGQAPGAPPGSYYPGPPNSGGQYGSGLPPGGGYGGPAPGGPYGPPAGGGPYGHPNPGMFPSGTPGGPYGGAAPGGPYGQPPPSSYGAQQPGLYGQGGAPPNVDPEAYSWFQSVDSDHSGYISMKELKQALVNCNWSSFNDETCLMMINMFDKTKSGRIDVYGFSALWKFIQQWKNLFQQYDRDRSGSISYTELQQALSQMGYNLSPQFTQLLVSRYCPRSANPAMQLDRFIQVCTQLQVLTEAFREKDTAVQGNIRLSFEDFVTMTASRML
UniProt Q6ZW49, whole entry, looked up: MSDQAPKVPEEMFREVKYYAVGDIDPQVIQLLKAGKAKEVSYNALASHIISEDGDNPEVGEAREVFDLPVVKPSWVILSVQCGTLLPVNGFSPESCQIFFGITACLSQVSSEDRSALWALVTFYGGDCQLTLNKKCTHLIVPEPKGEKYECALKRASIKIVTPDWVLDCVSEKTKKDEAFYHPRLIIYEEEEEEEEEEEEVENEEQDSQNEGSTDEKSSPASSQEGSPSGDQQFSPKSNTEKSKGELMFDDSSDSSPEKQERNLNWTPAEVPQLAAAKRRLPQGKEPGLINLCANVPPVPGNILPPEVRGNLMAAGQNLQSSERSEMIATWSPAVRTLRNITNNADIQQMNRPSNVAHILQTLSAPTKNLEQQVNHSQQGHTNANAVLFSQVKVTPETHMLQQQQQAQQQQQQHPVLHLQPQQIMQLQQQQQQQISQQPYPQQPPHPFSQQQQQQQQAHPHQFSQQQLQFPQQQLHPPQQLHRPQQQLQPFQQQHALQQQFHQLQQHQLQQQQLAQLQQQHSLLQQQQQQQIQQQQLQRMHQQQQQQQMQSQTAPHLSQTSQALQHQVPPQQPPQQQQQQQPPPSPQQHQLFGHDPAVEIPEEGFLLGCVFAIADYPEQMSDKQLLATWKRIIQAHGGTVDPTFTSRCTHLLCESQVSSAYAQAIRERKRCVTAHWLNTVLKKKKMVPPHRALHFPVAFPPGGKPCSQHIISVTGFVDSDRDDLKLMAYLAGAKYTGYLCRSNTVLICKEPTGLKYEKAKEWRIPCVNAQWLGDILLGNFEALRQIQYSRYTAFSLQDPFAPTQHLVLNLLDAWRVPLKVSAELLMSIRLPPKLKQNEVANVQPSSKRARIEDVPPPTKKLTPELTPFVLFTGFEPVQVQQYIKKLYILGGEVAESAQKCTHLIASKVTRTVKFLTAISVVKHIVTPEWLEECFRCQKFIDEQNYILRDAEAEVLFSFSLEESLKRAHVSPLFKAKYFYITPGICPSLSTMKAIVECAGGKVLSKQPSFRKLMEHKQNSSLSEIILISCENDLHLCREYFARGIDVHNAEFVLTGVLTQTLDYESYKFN
UniProt O96011, whole entry, looked up, stated change not applied: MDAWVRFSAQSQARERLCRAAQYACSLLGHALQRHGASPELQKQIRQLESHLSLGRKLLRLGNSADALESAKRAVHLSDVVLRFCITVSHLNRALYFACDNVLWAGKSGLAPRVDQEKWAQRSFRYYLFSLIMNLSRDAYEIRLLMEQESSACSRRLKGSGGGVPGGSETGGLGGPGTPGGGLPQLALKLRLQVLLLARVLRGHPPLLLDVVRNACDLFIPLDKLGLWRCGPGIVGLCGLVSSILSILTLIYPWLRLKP
UniProt Q9UKL6: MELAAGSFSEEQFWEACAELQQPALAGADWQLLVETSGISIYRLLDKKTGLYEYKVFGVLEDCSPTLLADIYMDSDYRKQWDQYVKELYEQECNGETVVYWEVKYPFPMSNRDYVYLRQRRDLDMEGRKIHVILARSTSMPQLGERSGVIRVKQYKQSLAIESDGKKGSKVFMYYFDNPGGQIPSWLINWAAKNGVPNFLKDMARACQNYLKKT
UniProt Q9BYG5: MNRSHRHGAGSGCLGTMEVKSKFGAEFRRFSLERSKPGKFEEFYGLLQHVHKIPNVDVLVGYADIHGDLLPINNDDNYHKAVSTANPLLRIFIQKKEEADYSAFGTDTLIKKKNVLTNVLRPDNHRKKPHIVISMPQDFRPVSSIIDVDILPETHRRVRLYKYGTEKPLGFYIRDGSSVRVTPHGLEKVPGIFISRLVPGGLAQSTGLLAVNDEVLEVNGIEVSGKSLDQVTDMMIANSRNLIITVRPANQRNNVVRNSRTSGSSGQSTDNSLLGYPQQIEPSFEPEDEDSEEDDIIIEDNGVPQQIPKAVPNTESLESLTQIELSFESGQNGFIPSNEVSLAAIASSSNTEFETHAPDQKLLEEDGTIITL
UniProt Q8IZL8: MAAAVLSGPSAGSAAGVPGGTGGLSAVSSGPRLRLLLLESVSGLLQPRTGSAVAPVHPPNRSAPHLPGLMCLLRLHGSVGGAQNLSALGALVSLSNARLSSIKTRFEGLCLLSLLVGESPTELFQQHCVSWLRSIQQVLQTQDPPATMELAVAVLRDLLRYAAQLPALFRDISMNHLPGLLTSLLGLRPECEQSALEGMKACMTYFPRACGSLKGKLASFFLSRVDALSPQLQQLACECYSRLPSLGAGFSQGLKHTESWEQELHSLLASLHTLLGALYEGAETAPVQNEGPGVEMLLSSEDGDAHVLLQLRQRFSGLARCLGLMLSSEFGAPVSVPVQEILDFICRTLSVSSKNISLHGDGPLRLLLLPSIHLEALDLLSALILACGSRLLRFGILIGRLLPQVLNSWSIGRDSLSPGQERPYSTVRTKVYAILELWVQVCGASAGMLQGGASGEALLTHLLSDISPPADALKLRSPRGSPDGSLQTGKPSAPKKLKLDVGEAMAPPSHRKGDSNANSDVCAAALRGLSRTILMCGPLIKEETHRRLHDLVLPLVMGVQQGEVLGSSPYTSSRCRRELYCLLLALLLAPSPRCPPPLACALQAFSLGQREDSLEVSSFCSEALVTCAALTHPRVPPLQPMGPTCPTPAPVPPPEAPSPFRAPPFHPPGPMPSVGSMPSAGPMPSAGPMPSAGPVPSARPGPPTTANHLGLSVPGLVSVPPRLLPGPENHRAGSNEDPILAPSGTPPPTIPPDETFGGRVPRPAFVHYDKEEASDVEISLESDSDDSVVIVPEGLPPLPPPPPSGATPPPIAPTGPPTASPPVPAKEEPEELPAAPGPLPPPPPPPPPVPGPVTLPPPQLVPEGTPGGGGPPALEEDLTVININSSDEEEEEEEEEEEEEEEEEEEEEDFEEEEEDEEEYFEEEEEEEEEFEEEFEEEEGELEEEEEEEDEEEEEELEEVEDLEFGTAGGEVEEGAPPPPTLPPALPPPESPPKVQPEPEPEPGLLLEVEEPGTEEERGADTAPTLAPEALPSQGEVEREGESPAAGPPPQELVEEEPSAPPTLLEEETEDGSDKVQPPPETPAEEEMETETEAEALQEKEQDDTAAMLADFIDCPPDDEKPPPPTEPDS
UniProt P22061: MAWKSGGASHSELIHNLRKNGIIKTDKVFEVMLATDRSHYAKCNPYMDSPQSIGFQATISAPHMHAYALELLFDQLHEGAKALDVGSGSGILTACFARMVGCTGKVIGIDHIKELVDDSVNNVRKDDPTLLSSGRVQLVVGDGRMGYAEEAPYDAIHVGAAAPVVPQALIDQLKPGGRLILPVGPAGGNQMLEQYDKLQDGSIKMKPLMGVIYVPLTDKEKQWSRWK

This is one part of the list.

Compound in this assay: c1ccc([C@@H]2C[C@H]2NC2CCNCC2)cc1
As to the kind of experiment: log2 fold change, soluble protein after heating vs DMSO (PISA); higher = thermal stabilisation; K562 cells, 10 uM, 30 min; active = over 0.2 and 3.5 SD of the protein, either way, in both replicates (recomputed). The procedure, abridged:
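K562 cells at 2×10^6 cells/mL were treated with 10 μM compound for 30 min. Aliquots were heated for 3 min across 48°C-58°C, pooled, and extracted in PBS with 0.5% NP-40 at 4°C; soluble protein was the supernatant after 21,000xg for 90 min. Soluble protein was quantified by TMTpro 16plex LC-MS/MS with channel sums equalised, and reported as log2 fold change in thermal stability against DMSO controls, with values from duplicates.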
Regarding PDIA6 isoform 2 (UniProt Q15084), the log2 fold change was inactive: 0.07.

For the target PALMD (UniProt Q9NP74), the log2 fold change is inactive: 0.079.

For PCYT1A (UniProt P49585), the log2 fold change was inactive: 0.019.

On to PAK3 isoform 3 (UniProt O75914), for which the log2 fold change is inactive: -0.01.

In the case of PDCD6 (UniProt O75340), the log2 fold change is inactive: 0.003.

With PDIA3 (UniProt H7BZJ3), the log2 fold change is inactive: 0.022.

For PCNP (UniProt Q8WW12), the log2 fold change was inactive: 0.032.

For PDLIM4 (UniProt P50479), the log2 fold change is inactive: -0.027.

Regarding PEX14 (UniProt O75381), the log2 fold change is inactive: 0.016.

As for PBXIP1 (UniProt Q96AQ6), the log2 fold change is inactive: -0.012.

Take PDCD6IP (UniProt Q8WUM4): the log2 fold change is inactive: -0.04.

With PAPSS1 (UniProt O43252), the log2 fold change is inactive: -0.057.

Turning to PAPOLA (UniProt P51003), the log2 fold change was inactive: -0.023.

PARVB (UniProt Q9HBI1): the log2 fold change was inactive: -0.002.

On to PEA15 isoform 2 (UniProt Q15121), for which the log2 fold change was inactive: -0.015.

For the target PDPR (UniProt Q8NCN5), the log2 fold change is inactive: -0.01.

Turning to PANK2 (UniProt Q9BZ23), the log2 fold change is inactive: 0.063.

With PDLIM1 (UniProt O00151), the log2 fold change was inactive: 0.005.

Consider PDS5A (UniProt Q29RF7), for which the log2 fold change was inactive: -0.105.

In the case of PABPC4 isoform 3 (UniProt Q13310), the log2 fold change is inactive: 0.028.

Regarding PEF1 (UniProt Q9UBV8), the log2 fold change is inactive: -0.014.

Consider PAXIP1 (UniProt Q6ZW49), for which the log2 fold change was inactive: 0.112.

Take PCCB isoform 2 (UniProt P05166): the log2 fold change was inactive: 0.013.

In the case of PDK1 (UniProt Q15118), the log2 fold change was inactive: -0.08.

PES1 (UniProt O00541): the log2 fold change is inactive: -0.099.

Turning to PCNT (UniProt O95613), the log2 fold change is inactive: 0.105.

As for PEX11B (UniProt O96011), the log2 fold change is inactive: -0.005.

As to PCYOX1L (UniProt Q8NBM8), the log2 fold change is inactive: -0.017.

With PCTP (UniProt Q9UKL6), the log2 fold change is inactive: 0.018.

As to PARP1 (UniProt P09874), the log2 fold change is inactive: -0.101.

With PARD6B (UniProt Q9BYG5), the log2 fold change was inactive: 0.

On to PAK2 (UniProt Q13177), for which the log2 fold change was inactive: -0.003.

Take PDIA3 (UniProt P30101): the log2 fold change was inactive: -0.028.

As to PELP1 (UniProt Q8IZL8), the log2 fold change is inactive: -0.013.

Take PDCD4 (UniProt Q53EL6): the log2 fold change was inactive: -0.003.

As to PAFAH2 (UniProt Q99487), the log2 fold change was inactive: -0.141.

As for PCBP1 (UniProt Q15365), the log2 fold change was inactive: 0.

For the target PCMT1 isoform 2 (UniProt P22061), the log2 fold change was inactive: -0.031.
